According to the supplement of paper PMC10689618:
Where a name gives a salt, the structure may show the parent alone. The list shows a part of the results. Single values are uncertain, as repeats are few or missing.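 Labelled rat cortical synaptosomes were engulfed by primary human fetal astrocytes. Engulfment equaled a red/green ratio, corrected for calcein live-cell signal and normalized to the plate median. Compounds were toxic when calcein dropped over 30%, and reduced phagocytosis when below 70% of the median above 5 µM.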

Legend:
Details in all cases: 24 h
Human fetal astrocytes [1] = experiment: loss of total cells relative to no-compound high-control median (toxicity); higher = more toxic (fewer cells)
Human fetal astrocytes [2] = experiment: synaptosome phagocytosis (pHrodo/calcein intensity ratio) relative to plate median of data wells; higher = more phagocytosis
Human fetal astrocytes [3] = experiment: loss of total cells relative to no-compound high-control median (toxicity); higher = more toxic (fewer cells); remark: listed apart in the source
Human fetal astrocytes [4] = experiment: synaptosome phagocytosis (pHrodo/calcein intensity ratio) relative to plate median of data wells; higher = more phagocytosis; remark: listed apart in the source

Compound | loss of total cells (Human fetal astrocytes [1]; 1.39 µM) [%] | loss of total cells (Human fetal astrocytes [1]; 2.78 µM) [%] | loss of total cells (Human fetal astrocytes [1]; 5.56 µM) [%] | loss of total cells (Human fetal astrocytes [1]; 11.11 µM) [%] | loss of total cells (Human fetal astrocytes [1]; 22.22 µM) [%] | synaptosome phagocytosis (Human fetal astrocytes [2]; 1.39 µM) [%] | synaptosome phagocytosis (Human fetal astrocytes [2]; 2.78 µM) [%] | synaptosome phagocytosis (Human fetal astrocytes [2]; 5.56 µM) [%] | synaptosome phagocytosis (Human fetal astrocytes [2]; 11.11 µM) [%] | synaptosome phagocytosis (Human fetal astrocytes [2]; 22.22 µM) [%] | loss of total cells (Human fetal astrocytes [3]; 1.39 µM) [%] | loss of total cells (Human fetal astrocytes [3]; 2.78 µM) [%] | loss of total cells (Human fetal astrocytes [3]; 5.56 µM) [%] | loss of total cells (Human fetal astrocytes [3]; 11.11 µM) [%] | loss of total cells (Human fetal astrocytes [3]; 22.22 µM) [%] | synaptosome phagocytosis (Human fetal astrocytes [4]; 1.39 µM) [%] | synaptosome phagocytosis (Human fetal astrocytes [4]; 2.78 µM) [%] | synaptosome phagocytosis (Human fetal astrocytes [4]; 5.56 µM) [%] | synaptosome phagocytosis (Human fetal astrocytes [4]; 11.11 µM) [%] | synaptosome phagocytosis (Human fetal astrocytes [4]; 22.22 µM) [%]
CC(C)c1c(O)ccc2c1CC[C@H]1C(C)(C)CCC[C@]21C | -12 | 2 | 42 | 35.5 | 43.3 | 109 | 101 | 118 | 128 | 64.8 | – | – | – | – | – | – | – | – | – | –
NCCCCC(=O)O [5-Aminovaleric acid hydrochloride] | 10.5 | -6.9 | 11.6 | 1.3 | 11.4 | 117 | 106 | 96.1 | 87.1 | 134 | -2.2 | -4.5 | -6.9 | -10.3 | -4.9 | 115 | 136 | 87.6 | 94.6 | 104
NCCNCCNCCN | -29.8 | -27.8 | 0 | 39 | 1.6 | 120 | 89.9 | 88.2 | 137 | 101 | – | – | – | – | – | – | – | – | – | –
Cc1ncc([N+](=O)[O-])n1CCO | 2.5 | 0.9 | -0.9 | -3.9 | -2.8 | 103 | 140 | 114 | 121 | 109 | – | – | – | – | – | – | – | – | – | –
Cc1scc2c1N(C(=O)CN1CCN(C)CC1)c1ccccc1NC2=O [Telenzepine dihydrochloride] | 6.1 | 25.6 | 13.8 | 5.4 | 15.9 | 83.9 | 159 | 94.8 | 104 | 166 | -22 | -36.8 | -1.1 | 12.6 | 0.8 | 98.7 | 85.5 | 95.6 | 103 | 89.7
O=c1cc(-c2ccc(O)cc2)oc2cc(O)cc(O)c12 [Apigenin] | 19.9 | 6.6 | -6.9 | 36.8 | 24.8 | 150 | 94.5 | 73.5 | 128 | 93.1 | -5.1 | 3 | -28.1 | -28.3 | 1.9 | 127 | 109 | 89.1 | 50.2 | 75.2
Cc1ccc(C(=O)Nc2ccc(S(=O)(=O)O)c3cc(S(=O)(=O)O)cc(S(=O)(=O)O)c23)cc1NC(=O)c1cccc(NC(=O)Nc2cccc(C(=O)Nc3cc(C(=O)Nc4ccc(S(=O)(=O)O)c5cc(S(=O)(=O)O)cc(S(=O)(=O)O)c45)ccc3C)c2)c1 [Suramin hexasodium] | 9.1 | -3.4 | 3.3 | 21.1 | 2.3 | 95.4 | 138 | 143 | 134 | 168 | -23.3 | -15.3 | 0.6 | 11.1 | 6.6 | 94.1 | 103 | 125 | 121 | 136
O=C([O-])c1ccccc1[O-].[Bi+3].[OH-] | 4.8 | -17.5 | 11.2 | 42.3 | 17.8 | 110 | 96.8 | 123 | 171 | 131 | – | – | – | – | – | – | – | – | – | –
